Assay results from patent US8633246B2, “Omega-3 fatty acids for osteoarthritis” (Hill's Pet Nutrition, Inc., priority 2003, dated 2014).

What was measured:
[1] = system: canine articular cartilage explants; assay: Media lactate concentration of cartilage explant cultures; format: cell-based; conditions: Dog 4; 300 μg/ml pre-treatment; control, RA- and OSM-treated cultures
[2] = system: canine chondrocyte membranes; assay: Incorporation of n-3 fatty acids into chondrocyte membranes, monolayer cultures; format: cell-based, dog

Row | Compound | change in media lactate concentration [1] | incorporation of 18:3 n-3 into chondrocyte membranes ([2]; 24 or 48 hours, two dogs) | incorporation into chondrocyte membranes ([2]; 48 hours, one dog, 300 μg/ml for each fatty acid) | % 18:3 n-3 in chondrocytes (range) ([2]; after 24 or 48 hours with 100 or 300 μg/ml ALA)
1 | oncostatin M [OSM] | significant decrease |  |  | 
2 | CC/C=C\C/C=C\C/C=C\CCCCCCCC(=O)O [ALA, alpha-linolenic acid] |  | no incorporation | but not the 18:3 n-3 fatty acid ALA | 0.3-2.5%
